Measured values from article PMC11926231.

Protein sequences, listed by entry. Tags and fused reporters are not part of them.
UniProt P34932: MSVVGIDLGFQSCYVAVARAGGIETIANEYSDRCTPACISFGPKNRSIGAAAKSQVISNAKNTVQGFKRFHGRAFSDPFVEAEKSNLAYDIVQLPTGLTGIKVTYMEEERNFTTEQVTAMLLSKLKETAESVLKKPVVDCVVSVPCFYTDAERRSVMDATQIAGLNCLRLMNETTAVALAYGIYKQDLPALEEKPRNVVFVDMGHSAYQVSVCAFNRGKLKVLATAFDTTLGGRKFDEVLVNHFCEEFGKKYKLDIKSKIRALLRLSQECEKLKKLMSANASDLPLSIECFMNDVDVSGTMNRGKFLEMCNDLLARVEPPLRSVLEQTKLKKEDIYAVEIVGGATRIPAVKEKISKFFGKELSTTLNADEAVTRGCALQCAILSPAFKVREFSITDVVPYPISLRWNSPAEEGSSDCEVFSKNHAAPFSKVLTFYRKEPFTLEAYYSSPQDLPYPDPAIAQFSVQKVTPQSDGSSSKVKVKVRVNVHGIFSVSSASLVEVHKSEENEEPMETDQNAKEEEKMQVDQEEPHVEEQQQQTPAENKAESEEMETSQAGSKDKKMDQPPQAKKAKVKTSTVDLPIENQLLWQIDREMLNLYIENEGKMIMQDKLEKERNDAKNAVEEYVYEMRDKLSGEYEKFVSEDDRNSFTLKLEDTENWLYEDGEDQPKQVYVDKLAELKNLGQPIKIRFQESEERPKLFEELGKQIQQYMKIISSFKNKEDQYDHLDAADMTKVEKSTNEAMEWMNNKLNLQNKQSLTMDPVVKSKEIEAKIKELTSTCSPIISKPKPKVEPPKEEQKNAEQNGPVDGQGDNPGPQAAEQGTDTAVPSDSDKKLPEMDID
UniProt P11142: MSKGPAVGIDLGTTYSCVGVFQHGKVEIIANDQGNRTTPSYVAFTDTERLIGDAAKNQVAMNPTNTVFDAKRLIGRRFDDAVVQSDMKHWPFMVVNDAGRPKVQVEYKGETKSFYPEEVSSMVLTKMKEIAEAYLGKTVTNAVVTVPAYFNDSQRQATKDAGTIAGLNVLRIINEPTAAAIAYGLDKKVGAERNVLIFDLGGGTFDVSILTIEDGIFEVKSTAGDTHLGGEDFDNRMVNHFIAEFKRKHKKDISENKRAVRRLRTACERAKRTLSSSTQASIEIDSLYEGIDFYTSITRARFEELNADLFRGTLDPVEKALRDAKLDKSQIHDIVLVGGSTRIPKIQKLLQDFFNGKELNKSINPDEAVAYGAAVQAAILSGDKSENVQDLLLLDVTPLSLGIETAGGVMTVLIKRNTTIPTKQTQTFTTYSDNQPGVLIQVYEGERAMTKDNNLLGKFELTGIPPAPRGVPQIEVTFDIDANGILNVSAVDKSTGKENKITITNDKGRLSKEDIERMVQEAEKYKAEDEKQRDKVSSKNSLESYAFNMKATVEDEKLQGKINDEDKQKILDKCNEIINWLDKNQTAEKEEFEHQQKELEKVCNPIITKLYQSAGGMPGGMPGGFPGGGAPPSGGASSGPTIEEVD
UniProt P0DMV8: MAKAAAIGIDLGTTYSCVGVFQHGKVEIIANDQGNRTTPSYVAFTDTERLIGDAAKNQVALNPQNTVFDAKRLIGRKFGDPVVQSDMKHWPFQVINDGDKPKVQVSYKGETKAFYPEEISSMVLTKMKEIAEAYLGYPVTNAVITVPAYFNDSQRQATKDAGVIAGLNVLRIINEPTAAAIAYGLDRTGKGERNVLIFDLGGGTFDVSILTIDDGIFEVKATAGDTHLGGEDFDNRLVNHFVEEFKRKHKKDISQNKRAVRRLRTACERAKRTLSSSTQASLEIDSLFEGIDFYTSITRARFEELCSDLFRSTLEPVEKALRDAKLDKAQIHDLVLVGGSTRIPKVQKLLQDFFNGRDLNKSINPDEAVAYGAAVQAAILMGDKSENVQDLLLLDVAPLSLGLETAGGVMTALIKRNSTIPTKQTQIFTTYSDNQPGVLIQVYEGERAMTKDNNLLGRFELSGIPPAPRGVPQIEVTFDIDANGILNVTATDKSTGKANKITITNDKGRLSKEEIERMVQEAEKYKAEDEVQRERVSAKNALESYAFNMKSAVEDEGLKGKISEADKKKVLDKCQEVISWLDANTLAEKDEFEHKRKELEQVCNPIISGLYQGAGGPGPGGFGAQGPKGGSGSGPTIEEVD

Target: T1, Flag-tagged PER2 (Flag-PER2) (human) (UniProt O15055)
T1 sequence: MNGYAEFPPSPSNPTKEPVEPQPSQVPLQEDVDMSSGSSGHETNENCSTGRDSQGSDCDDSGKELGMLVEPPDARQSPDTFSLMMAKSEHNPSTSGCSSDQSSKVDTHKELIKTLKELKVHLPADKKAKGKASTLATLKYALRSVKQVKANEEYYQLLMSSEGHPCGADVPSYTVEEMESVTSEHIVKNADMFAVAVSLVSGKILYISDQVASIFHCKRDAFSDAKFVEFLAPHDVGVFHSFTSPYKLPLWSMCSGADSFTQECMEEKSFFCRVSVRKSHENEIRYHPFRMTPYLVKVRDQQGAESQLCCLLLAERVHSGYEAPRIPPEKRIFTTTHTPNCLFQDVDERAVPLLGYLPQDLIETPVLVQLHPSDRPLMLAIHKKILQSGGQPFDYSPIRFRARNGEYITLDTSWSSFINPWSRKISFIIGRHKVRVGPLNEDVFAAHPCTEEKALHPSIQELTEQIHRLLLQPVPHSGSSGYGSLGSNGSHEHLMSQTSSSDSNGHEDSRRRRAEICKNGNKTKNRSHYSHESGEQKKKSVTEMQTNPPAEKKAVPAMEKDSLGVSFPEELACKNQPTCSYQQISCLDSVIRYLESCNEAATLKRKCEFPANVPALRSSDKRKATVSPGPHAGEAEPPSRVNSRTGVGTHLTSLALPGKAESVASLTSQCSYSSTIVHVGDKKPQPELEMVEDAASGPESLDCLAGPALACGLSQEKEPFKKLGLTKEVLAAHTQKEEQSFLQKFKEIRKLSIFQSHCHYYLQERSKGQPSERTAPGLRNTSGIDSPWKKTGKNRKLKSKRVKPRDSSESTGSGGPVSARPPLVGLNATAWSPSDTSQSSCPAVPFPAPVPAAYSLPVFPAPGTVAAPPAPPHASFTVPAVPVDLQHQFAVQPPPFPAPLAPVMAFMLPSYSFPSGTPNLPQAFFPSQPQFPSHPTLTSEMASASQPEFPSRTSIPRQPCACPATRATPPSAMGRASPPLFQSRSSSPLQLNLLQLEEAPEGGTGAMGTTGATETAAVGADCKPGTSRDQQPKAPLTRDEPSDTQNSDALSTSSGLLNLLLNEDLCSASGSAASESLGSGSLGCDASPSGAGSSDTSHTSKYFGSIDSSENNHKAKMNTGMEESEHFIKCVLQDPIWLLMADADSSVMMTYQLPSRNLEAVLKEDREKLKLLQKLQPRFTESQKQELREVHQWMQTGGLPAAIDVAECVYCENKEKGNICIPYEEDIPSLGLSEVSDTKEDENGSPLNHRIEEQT
Assay: affinity purification with mass spectrometry; Flag-PER2 plasmid transfected into SCC25 cells, collected after 48 h; immunoprecipitated with Flag antibody; 10% SDS-PAGE, in-gel digestion, TRIPLE TOF 6600; screening criterion unique peptide >=2

binding	Substance
binds	HSPA4 (from UniProt P34932 1-840)
binds	HSPA8 (from UniProt P11142 1-646)
binds	heat shock protein 70 (HSP70) in SCC25 and 293 T cells (from UniProt P0DMV8 1-641)

No constants are given. Whether binding was seen depends on the method and setting. In cells and extracts the contact can be indirect. Here binding means that the protein was enriched with, or labelled near, the bait; the list need not be complete. Where a sequence is shown, tags or fusion partners need not be part of it.
